Results published in PMC12238390.
These are yes or no findings as the source states them, for the method shown. Binding seen in cells or lysates may run through a third protein. Some entries that bind do so weakly or less than the wild type.

The chains behind the UniProt entries cited, without tags or fusion partners. Residues count along the entry.
UniProt P63104: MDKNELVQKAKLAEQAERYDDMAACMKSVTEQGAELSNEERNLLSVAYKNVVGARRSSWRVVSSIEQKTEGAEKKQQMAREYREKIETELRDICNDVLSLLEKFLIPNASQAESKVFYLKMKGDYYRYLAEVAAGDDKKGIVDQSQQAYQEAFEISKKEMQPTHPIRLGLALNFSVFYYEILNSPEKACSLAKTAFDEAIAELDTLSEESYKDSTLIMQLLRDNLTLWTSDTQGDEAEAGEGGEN
UniProt O43524: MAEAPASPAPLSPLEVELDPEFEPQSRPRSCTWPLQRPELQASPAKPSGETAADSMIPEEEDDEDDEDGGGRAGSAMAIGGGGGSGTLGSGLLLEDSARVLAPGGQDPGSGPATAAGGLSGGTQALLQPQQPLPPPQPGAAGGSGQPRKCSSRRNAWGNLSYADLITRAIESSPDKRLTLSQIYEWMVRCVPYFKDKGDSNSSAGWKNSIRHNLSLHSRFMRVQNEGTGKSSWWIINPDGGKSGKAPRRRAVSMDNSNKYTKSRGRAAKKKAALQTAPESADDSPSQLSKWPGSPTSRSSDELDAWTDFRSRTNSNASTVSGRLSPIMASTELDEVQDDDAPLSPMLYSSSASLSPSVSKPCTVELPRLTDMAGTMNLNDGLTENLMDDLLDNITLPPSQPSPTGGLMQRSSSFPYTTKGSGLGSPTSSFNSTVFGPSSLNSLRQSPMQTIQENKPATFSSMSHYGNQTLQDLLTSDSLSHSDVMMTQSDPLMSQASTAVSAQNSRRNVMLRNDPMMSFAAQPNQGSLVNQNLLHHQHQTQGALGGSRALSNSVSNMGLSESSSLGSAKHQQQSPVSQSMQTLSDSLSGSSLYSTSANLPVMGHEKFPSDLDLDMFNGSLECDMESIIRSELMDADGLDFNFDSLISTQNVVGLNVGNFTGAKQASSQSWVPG
UniProt Q12778: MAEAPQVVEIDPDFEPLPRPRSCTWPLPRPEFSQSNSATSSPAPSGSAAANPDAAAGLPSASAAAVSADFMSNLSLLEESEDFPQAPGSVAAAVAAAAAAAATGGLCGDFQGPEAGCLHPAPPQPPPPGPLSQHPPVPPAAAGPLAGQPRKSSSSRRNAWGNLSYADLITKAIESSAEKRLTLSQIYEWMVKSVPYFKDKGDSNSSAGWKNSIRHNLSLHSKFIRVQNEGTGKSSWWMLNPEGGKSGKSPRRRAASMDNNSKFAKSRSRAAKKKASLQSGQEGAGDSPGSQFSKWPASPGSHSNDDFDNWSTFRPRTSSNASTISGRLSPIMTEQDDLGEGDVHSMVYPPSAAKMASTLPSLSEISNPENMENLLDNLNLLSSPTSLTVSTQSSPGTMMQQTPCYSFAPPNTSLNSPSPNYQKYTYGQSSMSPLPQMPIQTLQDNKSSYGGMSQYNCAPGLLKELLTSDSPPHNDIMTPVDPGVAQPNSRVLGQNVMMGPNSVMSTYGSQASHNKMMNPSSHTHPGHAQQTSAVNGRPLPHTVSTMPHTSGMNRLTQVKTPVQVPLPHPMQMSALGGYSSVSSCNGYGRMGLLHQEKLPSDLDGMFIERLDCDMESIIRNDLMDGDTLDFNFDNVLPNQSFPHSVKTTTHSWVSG
UniProt Q8N122: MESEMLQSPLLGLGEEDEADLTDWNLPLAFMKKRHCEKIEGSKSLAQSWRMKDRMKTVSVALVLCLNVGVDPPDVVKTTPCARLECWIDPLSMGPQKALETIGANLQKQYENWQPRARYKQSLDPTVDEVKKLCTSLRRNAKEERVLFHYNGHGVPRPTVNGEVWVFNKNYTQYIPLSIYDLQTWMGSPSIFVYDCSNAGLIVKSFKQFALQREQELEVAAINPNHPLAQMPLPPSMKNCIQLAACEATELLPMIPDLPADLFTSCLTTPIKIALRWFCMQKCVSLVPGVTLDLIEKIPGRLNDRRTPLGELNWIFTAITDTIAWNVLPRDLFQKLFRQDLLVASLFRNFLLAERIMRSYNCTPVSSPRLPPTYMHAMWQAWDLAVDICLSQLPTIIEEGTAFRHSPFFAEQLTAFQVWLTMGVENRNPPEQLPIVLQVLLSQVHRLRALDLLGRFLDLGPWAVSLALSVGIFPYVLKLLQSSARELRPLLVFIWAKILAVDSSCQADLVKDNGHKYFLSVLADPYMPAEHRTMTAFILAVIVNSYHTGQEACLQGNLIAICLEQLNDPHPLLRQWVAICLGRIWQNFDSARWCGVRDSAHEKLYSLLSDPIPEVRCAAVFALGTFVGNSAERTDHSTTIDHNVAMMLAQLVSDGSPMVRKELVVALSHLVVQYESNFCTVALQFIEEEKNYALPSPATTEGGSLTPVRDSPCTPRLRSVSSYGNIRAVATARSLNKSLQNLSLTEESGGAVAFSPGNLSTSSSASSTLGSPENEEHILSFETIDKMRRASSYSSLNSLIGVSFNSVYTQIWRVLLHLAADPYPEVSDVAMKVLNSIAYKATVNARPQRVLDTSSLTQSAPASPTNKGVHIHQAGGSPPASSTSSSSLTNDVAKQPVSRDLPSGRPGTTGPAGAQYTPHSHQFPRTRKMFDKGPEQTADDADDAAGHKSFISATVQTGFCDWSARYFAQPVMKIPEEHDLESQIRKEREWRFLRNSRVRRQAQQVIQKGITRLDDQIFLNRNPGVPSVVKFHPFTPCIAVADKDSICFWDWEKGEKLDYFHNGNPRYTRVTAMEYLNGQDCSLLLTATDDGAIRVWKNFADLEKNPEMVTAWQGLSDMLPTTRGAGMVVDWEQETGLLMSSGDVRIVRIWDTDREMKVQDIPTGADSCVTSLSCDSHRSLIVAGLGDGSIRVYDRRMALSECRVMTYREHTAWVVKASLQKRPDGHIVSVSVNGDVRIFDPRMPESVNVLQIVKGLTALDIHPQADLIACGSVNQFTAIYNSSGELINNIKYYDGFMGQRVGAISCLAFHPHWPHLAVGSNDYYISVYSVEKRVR
UniProt P40763: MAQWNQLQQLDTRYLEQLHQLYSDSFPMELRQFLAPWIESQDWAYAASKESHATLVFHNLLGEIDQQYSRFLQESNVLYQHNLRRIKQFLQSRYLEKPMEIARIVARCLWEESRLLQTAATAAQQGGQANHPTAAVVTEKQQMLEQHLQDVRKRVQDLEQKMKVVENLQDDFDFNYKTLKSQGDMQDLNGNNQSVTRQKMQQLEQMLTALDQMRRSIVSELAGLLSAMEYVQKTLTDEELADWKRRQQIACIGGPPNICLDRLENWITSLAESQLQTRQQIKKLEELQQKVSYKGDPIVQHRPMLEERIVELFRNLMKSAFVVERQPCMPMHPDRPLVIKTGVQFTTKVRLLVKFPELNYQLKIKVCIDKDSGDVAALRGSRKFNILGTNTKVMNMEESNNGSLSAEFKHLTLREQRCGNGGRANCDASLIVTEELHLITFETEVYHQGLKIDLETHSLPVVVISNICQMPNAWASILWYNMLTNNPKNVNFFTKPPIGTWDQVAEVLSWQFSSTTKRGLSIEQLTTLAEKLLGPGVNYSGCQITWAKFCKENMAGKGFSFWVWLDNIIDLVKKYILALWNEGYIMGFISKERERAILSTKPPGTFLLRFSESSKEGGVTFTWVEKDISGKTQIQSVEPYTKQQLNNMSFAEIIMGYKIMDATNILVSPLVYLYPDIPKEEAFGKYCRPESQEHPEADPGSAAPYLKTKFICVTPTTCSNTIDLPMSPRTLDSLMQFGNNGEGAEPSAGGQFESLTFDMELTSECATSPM
UniProt P30530, residues 26-894: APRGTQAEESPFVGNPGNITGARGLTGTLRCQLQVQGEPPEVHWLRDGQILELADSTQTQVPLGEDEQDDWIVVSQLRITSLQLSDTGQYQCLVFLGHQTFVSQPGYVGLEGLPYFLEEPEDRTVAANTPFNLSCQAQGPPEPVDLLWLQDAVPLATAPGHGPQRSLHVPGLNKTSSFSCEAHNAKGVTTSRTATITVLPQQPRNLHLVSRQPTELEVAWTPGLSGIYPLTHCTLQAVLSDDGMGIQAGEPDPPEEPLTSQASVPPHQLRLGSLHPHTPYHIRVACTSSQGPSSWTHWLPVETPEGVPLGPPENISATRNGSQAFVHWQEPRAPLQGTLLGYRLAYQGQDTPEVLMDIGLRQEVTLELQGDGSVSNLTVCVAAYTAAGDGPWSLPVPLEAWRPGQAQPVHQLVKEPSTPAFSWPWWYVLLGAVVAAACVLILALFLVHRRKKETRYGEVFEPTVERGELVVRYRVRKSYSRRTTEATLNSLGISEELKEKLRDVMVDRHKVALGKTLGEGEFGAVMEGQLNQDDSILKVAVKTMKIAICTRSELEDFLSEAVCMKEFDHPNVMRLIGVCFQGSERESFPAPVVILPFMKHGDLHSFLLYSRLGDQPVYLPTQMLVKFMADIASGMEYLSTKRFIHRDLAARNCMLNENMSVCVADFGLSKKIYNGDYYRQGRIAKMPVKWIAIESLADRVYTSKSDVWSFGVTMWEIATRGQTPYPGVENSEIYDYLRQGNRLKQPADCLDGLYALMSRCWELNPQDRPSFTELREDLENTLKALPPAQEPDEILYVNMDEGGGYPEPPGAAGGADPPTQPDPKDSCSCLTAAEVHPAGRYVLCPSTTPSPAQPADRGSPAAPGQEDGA

Legend:
[1] = biological target: Myc epitope-tagged 14-3-3ζ (UniProt P63104); experiment: co-IP; HEK293T cells transiently transfected with Myc-tagged 14-3-3 isoforms, incubated with DMSO or 500 µM BA for 24 h, lysed; IP with antibodies to Myc, immunoblot of endogenous client proteins
[2] = biological target: recombinant glutathione S-transferase (GST)-tagged 14-3-3ζ (UniProt P63104); experiment: pull-down; HEK293T or BxPC-3 cells treated with DMSO or 1000 µM BA for 100 min, lysed; pull-down with recombinant GST-tagged 14-3-3ζ, immunoblot; only the target purified
[3] = biological target: recombinant glutathione S-transferase (GST)-tagged 14-3-3ζ (UniProt P63104); experiment: pull-down; A549 cell lysates, with or without BA; pull-down with GST-tagged 14-3-3ζ (Fig. S2c); only the target purified

| Substance | binding [1] | binding [2] | binding [3] |
| --- | --- | --- | --- |
| FOXO3a (from UniProt O43524 1-673) | binds |  |  |
| FOXO1 (from UniProt Q12778 1-655) | binds |  |  |
| Raptor (from UniProt Q8N122 1-1335) | binds |  |  |
| signal transducer and activator of transcription 3 (STAT3) (from UniProt P40763 1-770) | binds | binds |  |
| Axl (from UniProt P30530 26-894) (receptor) |  |  | binds |
